Experimental data published in the supplement of paper PMC4749390.
Structures can show the parent of a compound that is named as a salt. The list shows a part of the results. Repeats in this data set agree poorly, so a single value says little.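 JEG3 cells stably express tetracycline-inducible wild-type human LRH-1, a highly sumoylated nuclear receptor. SUMO-sensitive transcripts APOC3 and MUC1, increased by SUMO-deficient LRH-1 or UBC9 knockdown, were quantified by RT-qPCR relative to TBP and DMSO controls. Primary hits had robust Z-scores above +2 or below -2, before toxicity and TBP filtering.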

What follows are compounds tested on JEG3 expressing hLRH-1 (assay: MUC1 transcript change (ddCt vs TBP and DMSO), Z-score over library; higher = higher MUC1 expression). Conditions: 10 µM; time (hr): 24.

SMILES	MUC1 transcript change (Z-score)
CO[C@H]1C[C@H](O[C@@H]2/C(C)=C/C[C@@H]3C[C@@H](C[C@]4(CC[C@H](C)[C@@H](C5CCCCC5)O4)O3)OC(=O)[C@@H]3C=C(C)/C(=N/O)[C@H]4OC/C(=C\C=C\[C@@H]2C)[C@]43O)O[C@@H](C)[C@@H]1O [selamectin]	0.119
Oc1ccnc(O)n1 [uracil]	1.08
O=C(O)C[C@H](O)C[C@H](O)/C=C/c1c(C2CC2)nc2ccccc2c1-c1ccc(F)cc1 [pitavastatin calcium]	-0.209
C=C(C)C1CC=C(C)CC1 (stereo not drawn) [d-limonene]	0.318
CCN(CC)CCNC(=O)c1cc(Br)c(N)cc1OC [bromopride]	-0.401
O=[N+]([O-])c1ccc(O)c2ncccc12 [nitroxoline]	1.22
COc1c2ccoc2cc2oc(=O)ccc12 [bergapten]	0.284
CC1(C)O[C@]2(C)CC[C@H]1CC2 [eucalyptol]	-0.0475
CN(C)CCN(Cc1ccccc1)c1ccccn1 [Tripelennamine hydrochloride]	0.443
CN1CCN(c2c(F)cc3c(=O)c(C(=O)O)cn4c3c2SCC4)CC1 [rufloxacin hydrochloride]	0.278
COCCCOc1ccnc(CS(=O)c2nc3ccccc3[nH]2)c1C (stereo not given) [rabeprazole sodium]	0.819
CC(C)NNC(=O)c1ccncc1 [Iproniazid phosphate]	0.682
OCCc1ccccc1 [phenylethyl alcohol]	0.179
C[C@H]1c2cccc(O)c2C(=O)C2=C(O)[C@]3(O)C(O)=C(C(N)=O)C(=O)[C@@H](N(C)C)[C@@H]3[C@@H](O)[C@@H]21 [doxycycline hydrochloride]	0.00319
Cn1nnc2c(C(N)=O)ncn2c1=O [temozolamide]	-0.358
CN1CCC(OC(c2ccccc2)c2ccccc2)CC1 [diphenylpyraline hydrochloride]	-0.783
CN(C)CCCN1c2ccccc2Sc2ccc(Cl)cc21 [Chlorpromazine hydrochloride]	-0.108
Nc1ccc(C(=O)O)c(O)c1 [sodium p-aminosalicylate]	0.955
CCCCOc1cc(C(=O)OCCN(CC)CC)ccc1N [benoxinate hydrochloride]	-0.153
O=C(O)c1ccccc1O [sodium salicylate]	0.229
CS(=O)(=O)Nc1ccc([N+](=O)[O-])cc1Oc1ccccc1 [nimesulide]	-1.01
C1CCC(C(CC2CCCCN2)C2CCCCC2)CC1 (stereo not given) [perhexiline maleate]	0.321
COC(=O)[C@H](c1ccccc1Cl)N1CCc2sccc2C1 [clopidogrel sulfate]	0.3
CCn1nc(C(=O)O)c(=O)c2cc3c(cc21)OCO3 [cinoxacin]	-1.57
CCC(=O)O[C@]1(C(=O)SCF)[C@H](C)C[C@H]2[C@@H]3C[C@H](F)C4=CC(=O)C=C[C@]4(C)[C@@]3(F)[C@@H](O)C[C@@]21C [fluticasone propionate]	-0.3

SMILES	MUC1 transcript change (Z-score)
CCCNC(C)(C)COC(=O)c1ccccc1 [meprylcaine hydrochloride]	0.343
CC(=O)c1ccc(S(=O)(=O)NC(=O)NC2CCCCC2)cc1 [Acetohexamide]	0.608
O=C(O)CN1C(=O)c2cccc3cccc(c23)C1=O [alrestatin]	-0.0889
NC(Cc1ccc(Cl)cc1)C(=O)O (racemic) [(±)-p-Chlorophenylalanine]	-0.731
Cc1onc(-c2ccccc2Cl)c1C(=O)N[C@@H]1C(=O)N2[C@@H]1SC(C)(C)[C@@H]2C(=O)O [cloxacillin sodium]	-0.0437
CCC1(C)CC(=O)NC1=O (stereo not given) [ethosuximide]	0.372
NC[C@@H]1O[C@H](O[C@H]2[C@@H](O)[C@H](O[C@@H]3[C@@H](O)[C@H](N)C[C@H](N)[C@H]3O[C@H]3O[C@H](CN)[C@@H](O)[C@H](O)[C@H]3N)O[C@@H]2CO)[C@H](N)[C@@H](O)[C@@H]1O [neomycin sulfate]	0.161
O=C1c2c(O)ccc(O)c2C(=O)c2c(NCCNCCO)ccc(NCCNCCO)c21 [mitoxanthrone hydrochloride]	2.46
CC(=O)c1ccc2c(c1)N(CCCN(C)C)c1ccccc1S2 [acepromazine maleate]	-0.647
Oc1c(Cl)cc(Cl)cc1Sc1cc(Cl)cc(Cl)c1O [bithionol]	-0.0873
NS(=O)(=O)c1cc2c(cc1C(F)(F)F)NCNS2(=O)=O [hydroflumethiazide]	0.118
CCn1cc(C(=O)O)c(=O)c2cnc(N3CCCC3)nc21 [piromidic acid]	0.275
CC(O)(CC(=O)O)CC(=O)O [meglutol]	-0.331
N=C(N)/N=C(\N)N1CCOCC1 [moroxydine hydrochloride]	-0.0833
CCN(CC)C(=O)c1ccc(O)c(OC)c1 [ethamivan]	0.539
CC(=O)[C@@]1(O)CC[C@H]2[C@@H]3CCC4=CC(=O)CC[C@]4(C)[C@H]3CC[C@@]21C [hydroxyprogesterone]	-0.622
CCOC(=O)[C@H](CCc1ccccc1)N[C@@H](C)C(=O)N1Cc2ccccc2C[C@H]1C(=O)O [quinapril hydrochloride]	-0.119
CCC(C)n1ncn(-c2ccc(N3CCN(c4ccc(OC[C@H]5CO[C@](Cn6cncn6)(c6ccc(Cl)cc6Cl)O5)cc4)CC3)cc2)c1=O (stereo not given in full) [itraconazole]	-0.0936
CNCCCC12CCC(c3ccccc31)c1ccccc12 [maprotiline hydrochloride]	0.497
CCC1NC(=O)c2cc(S(N)(=O)=O)c(Cl)cc2N1 (stereo not given) [quinethazone]	-0.811
O=C1NCC2(CCN(CCc3ccccc3)CC2)O1 [fenspiride hydrochloride]	-0.104
O=C(O)Cc1cc(I)c(Oc2ccc(O)c(I)c2)c(I)c1 [tiratricol]	-0.313
Cc1cc(-c2ccccc2)nnc1NCCN1CCOCC1 [minaprine hydrochloride]	1.02
CCCOc1ccc2[nH]c(NC(=O)OC)nc2c1 [oxybendazole]	-0.988
Cc1cc2nc3c(=O)[nH]c(=O)nc-3n(C[C@H](O)[C@H](O)[C@H](O)CO)c2cc1C [riboflavin]	0.00461

5 compounds picked at random from those above:
SMILES	MUC1 transcript change (Z-score)
CCC(C)n1ncn(-c2ccc(N3CCN(c4ccc(OC[C@H]5CO[C@](Cn6cncn6)(c6ccc(Cl)cc6Cl)O5)cc4)CC3)cc2)c1=O (stereo not given in full) [itraconazole]	-0.0936
CCCNC(C)(C)COC(=O)c1ccccc1 [meprylcaine hydrochloride]	0.343
CNCCCC12CCC(c3ccccc31)c1ccccc12 [maprotiline hydrochloride]	0.497
O=C1NCC2(CCN(CCc3ccccc3)CC2)O1 [fenspiride hydrochloride]	-0.104
N=C(N)/N=C(\N)N1CCOCC1 [moroxydine hydrochloride]	-0.0833

Further structures.

SMILES	MUC1 transcript change (Z-score)
C=CCc1ccccc1OCC(O)CNC(C)C (stereo not given) [Alprenolol hydrochloride]	0.364
CO[C@H]1/C=C/O[C@@]2(C)Oc3c(C)c(O)c4c(O)c(c5c(nc6cc(C)ccn65)c4c3C2=O)NC(=O)/C(C)=C\C=C\[C@H](C)[C@H](O)[C@@H](C)[C@@H](O)[C@@H](C)[C@H](OC(C)=O)[C@@H]1C [rifaximin]	-1.16
C[C@]12C=CC(=O)N[C@@H]1CC[C@@H]1[C@@H]2CC[C@]2(C)[C@@H](C(=O)Nc3cc(C(F)(F)F)ccc3C(F)(F)F)CC[C@@H]12 [dutasteride]	0.258
CCCNC(=O)NS(=O)(=O)c1ccc(Cl)cc1 [Chlorpropamide]	-1.14
Cc1cc(O)c(C(=O)N[C@@H](C(=O)N[C@@H]2C(=O)N3C(C(=O)O)=C(CSc4nnnn4C)CS[C@H]23)c2ccc(O)cc2)cn1 [cefpiramide]	-0.53
C(=C\N1CCN(C(c2ccccc2)c2ccccc2)CC1)/Cc1ccccc1 [cinnarazine]	-0.79
NCCCCCC(=O)O [aminocaproic acid]	-0.517
Cc1ccnc2c1NC(=O)c1cccnc1N2C1CC1 [nevirapine]	-0.515
CNCCc1ccccn1 [betahistine hydrochloride]	-0.985
N#C[C@@H]1C[C@@H]2C[C@@H]2N1C(=O)[C@@H](N)[C@]12CC3CC(C[C@@](O)(C3)C1)C2 [saxagliptin]	1.34
CO/N=C(/C(=O)N[C@@H]1C(=O)N2C(C(=O)OCSC(=O)c3ccco3)=CCS[C@H]12)c1csc(N)n1 [ceftiofur hydrochloride]	0.459
CCn1cc(C(=O)O)c(=O)c2cc(F)c(N3CCNC(C)C3)c(F)c21 (stereo not given) [lomefloxacin hydrochloride]	0.497
Nc1ccc(S(=O)(=O)Nc2ccccn2)cc1 [sulfapyridine]	-0.0553
CCC(=O)OCC(=O)[C@@]1(OC(=O)CC)[C@@H](C)CC2C3CCC4=CC(=O)C=C[C@]4(C)C3(F)[C@@H](O)C[C@@]21C (stereo not given in full) [betamethasone 17,21-dipropionate]	0.0348
C=C1c2cccc(O)c2C(O)=C2C(=O)[C@]3(O)C(O)=C(C(N)=O)C(=O)[C@@H](N(C)C)[C@@H]3[C@@H](O)[C@H]12 [methacycline hydrochloride]	0.292
CC(C(=O)O)c1cccc(C(=O)c2ccccc2)c1 (stereo not given) [ketoprofen]	2.53
CCOc1ccccc1OCCNC(C)Cc1ccc(OC)c(S(N)(=O)=O)c1 (stereo not given) [tamsulosin hydrchloride]	0.592
Nc1ccc(S(=O)(=O)Nc2ncccn2)cc1 [sulfadiazine]	0.129
CC1=NS(=O)(=O)c2cc(Cl)ccc2N1 [Diazoxide]	0.228
Cn1nnnc1SCC1=C(C(=O)O)N2C(=O)C(NC(=O)C(O)c3ccccc3)C2SC1 (stereo not given) [cefamandole sodium]	0.999
CCN(CC)CCOC(=O)C(Cc1cccc2ccccc12)CC1CCCO1 (stereo not given) [nafronyl oxalate]	0.231
Nc1cc(N2CCCCC2)nc(N)[n+]1[O-] [Minoxidil]	0.338
CC1(C)C2CCC1(CS(=O)(=O)O)C(=O)/C2=C\c1ccc(/C=C2\C(=O)C3(CS(=O)(=O)O)CCC2C3(C)C)cc1 [ecamsule triethanolamine]	-0.732
Cc1ccc(S(=O)(=O)NC(=O)NN2CCCCCC2)cc1 [Tolazamide]	-0.254
CN1C(CCl)Nc2cc(Cl)c(S(N)(=O)=O)cc2S1(=O)=O (stereo not given) [methyclothiazide]	0.157
